Results are given in words; binding and its absence hold for the method and conditions named. Binding can be weak; no strength is given.
T1: serine/arginine-rich 45 (SR45), SR45.1 isoform (Arabidopsis thaliana) (UniProt Q9SEE9)
T1 sequence: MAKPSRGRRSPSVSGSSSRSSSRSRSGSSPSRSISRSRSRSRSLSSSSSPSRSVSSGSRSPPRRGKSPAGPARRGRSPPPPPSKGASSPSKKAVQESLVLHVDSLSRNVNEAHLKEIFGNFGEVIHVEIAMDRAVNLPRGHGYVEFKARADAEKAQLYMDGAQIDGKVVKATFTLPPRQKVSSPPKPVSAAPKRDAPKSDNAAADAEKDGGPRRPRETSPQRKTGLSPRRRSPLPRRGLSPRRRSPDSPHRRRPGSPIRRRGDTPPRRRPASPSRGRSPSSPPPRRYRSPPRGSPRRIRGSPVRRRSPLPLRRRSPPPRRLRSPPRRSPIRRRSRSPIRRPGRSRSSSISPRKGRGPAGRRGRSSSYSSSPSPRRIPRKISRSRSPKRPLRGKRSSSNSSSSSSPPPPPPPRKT

B1: PRP38 (Pre-mRNA Processing factor 38) (protein, UniProt Q8LB54 1-355)
chain: MANRTDPLAKNIRGTNPQNLVEKIVRTKIYQHTFWKEQCFGLTAETLVDKAMELDHLGGTFGGSRKPTPFLCLILKMLQIQPEKEIVVEFIKNDDYKYVRILGAFYLRLTGTDVDVYRYLEPLYNDYRKVRQKLSDGKFSLTHVDEVIEELLTKDYSCDIAMPRLKKRWTLEQNGLLEPRKSVLEDDFEEEEEKEENEGIADGSEDEMDQRRKSPERERERDRDRRRDSHRHRDRDYDRDYDMDRDHDRDYERERGHGRDRDRERDRDHYRERDRDRERGRDRERDRRDRARRRSRSRSRDRKRHETDDVRDREEPKKKKEKKEKMKEDGTDHPNPEIAEMNRLRASLGMKPLRD
B2: RZ-1B (protein, UniProt O22703 1-292)
chain: MKDRENDGNLESRIFVGGLSWDVTERQLESTFDRYGKITECQIMVGRDTGRPRGFGFITFTDRRGADDAIKHMHGRELGNKVISVNKAEPKVGGEDVDQLKKGGGYSSRGKGTEDECFKCRRPGHWARDCPSTGDDRERFRVPLAMRSRIGDIDGHRDRYGDRDLEREREREREFDRYMDGRRDRDGGRYSYRDRFDSGDKYEPRDHYPFERYAPPGDRFVSDRYGMPEHHLENEYRGRERSYDRDRYARDTSDRYGDMGPIRDEGRPYRSRPGPYDRPSRPGGRPSSYERW
B3: ALY4 (protein, UniProt Q6NQ72 1-288)
chain: MSGALNMTLDEIVKRGKTARSGGRGISRGRGRGRGGGGRGAGPARRGPLAVNARPSSFTINKPVRRVRSLPWQSGLFEDGLRAAGASGVEVGTRLHVTNLDQGVTNEDIRELFSEIGEVERYAIHYDKNGRPSGTAEVVYPRRSDAFQALKKYNNVLLDGRPMRLEILGGNNSSEAPLSGRVNVNVTGLNGRLKRTVVIQQGGGGRGRVRGGRGGRGPAPTVSRRLPIHNQQGGGMRGGRGGFRARGRGNGGRGRGGGRGNGKKPVEKSAADLDKDLESYHADAMNTS
B4: SR34 (protein, UniProt O22315 1-303)
chain: MSSRSSRTVYVGNLPGDIREREVEDLFSKYGPVVQIDLKVPPRPPGYAFVEFDDARDAEDAIHGRDGYDFDGHRLRVELAHGGRRSSDDTRGSFNGGGRGGGRGRGDGGSRGPSRRSEFRVLVTGLPSSASWQDLKDHMRKGGDVCFSQVYRDARGTTGVVDYTCYEDMKYALKKLDDTEFRNAFSNGYVRVREYDSRKDSRSPSRGRSYSKSRSRSRGRSVSRSRSRSRSRSRSPKAKSSRRSPAKSTSRSPGPRSKSRSPSPRRSRSRSRSPLPSVQKEGSKSPSKPSPAKSPIHTRSPSR
B5: RZ-1C (protein, UniProt Q8RWN5 1-310)
chain: MAAKEGSRIFVGGLSPEVTDRDLERAFSRFGDILDCQIMLERDTGRSRGFGFITFADRRAMDESIREMHGRDFGDRVISVNRAEPKLGRDDGESHGSRGGRDSGYSIAGKGSFGGGGGGGGRVGEDECFKCGRVGHWARDCPSAGGGRGGPVGGFSSRASAYGGSDGRVDRYADRDRYVDRERYIDDRYDGAARYGARDRFDSREAYIPRDRYASDRYAAPADRFAGGDRYSRGSDRYPPGSYDKARSFERDIAPSAGSDRYGGGRAGGPIRGGGEEGRGFRSRAGAPYERPSRSGGGGAYPSSSTFDRY
B6: MOS12 (MODIFIER OF SNC1-1, 12) (protein, UniProt Q8RWV3 1-416)
chain: MIYTAIDNFYLSDEQLKASPSRKDGIDETTEISLRIYGCDLIQEGGILLKLPQAVMATGQVLFQRFYCKKSLAKFDVKIVAASCVWLASKLEENPKKARQVIIVFHRMECRRENLPLEHLDMYAKKFSELKVELSRTERHILKEMGFVCHVEHPHKFISNYLATLETPPELRQEAWNLANDSLRTTLCVRFRSEVVACGVVYAAARRFQVPLPENPPWWKAFDADKSSIDEVCRVLAHLYSLPKAQYISVCKDGKPFTFSSRSGNSQGQSATKDLLPGAGEAVDTKCTAGSANNDLKDGMVTTPHEKATDSKKSGTESNSQPIVGDSSYERSKVGDRERESDREKERGRERDRGRSHRGRDSDRDSDRERDKLKDRSHHRSRDRLKDSGGHSDKSRHHSSRDRDYRDSSKDRRRHH
B7: RS31a (protein, UniProt Q9ZPX8 1-250)
chain: MRHVYVGNFDYDTRHSDLERLFSKFGRVKRVDMKSGYAFVYFEDERDAEDAIRRTDNTTFGYGRRKLSVEWAKDFQGERGKPRDGKAVSNQRPTKTLFVINFDPIRTRERDMERHFEPYGKVLNVRMRRNFAFVQFATQEDATKALDSTHNSKLLDKVVSVEYALREAGEREDRYAGSRRRRSPSPVYRRRPSPDYTRRRSPEYDRYKGPAPYERRKSPDYGRRSSDYGRARARSPGYDRSRSPIQRARG
B8: SCL30 (protein, UniProt Q8L3X8 1-262)
chain: MRRYSPPYYSPPRRGYGGRGRSPPPPPPRRGYGGGGGGGGRRGSSHGSLLVRNIPLDCRPEELREPFERFGPVRDVYIPRDYYSGQPRGFAFVEFVDAYDAGEAQRSMNRRSFAGREITVVVASESRKRPEEMRVKTRTRSREPSGSRDRSHGRSRSRSISRSRSPRRPSDSRSRYRSRSYSPAPRRRGGPPRGEEDENYSRRSYSPGYEGAAAAAPDRDRNGDNEIREKPGYEAEDRRRGGRAVSRSPSGSRSRSVEVSPR
B9: RS2Z32 (arginine/serine-rich zinc knuckle-containing protein 32) (protein, UniProt Q9FYB7 1-284)
chain: MPRYDDRYGNTRLYVGRLSSRTRTRDLERLFSRYGRVRDVDMKRDYAFVEFSDPRDADDARYYLDGRDFDGSRITVEASRGAPRGSRDNGSRGPPPGSGRCFNCGVDGHWARDCTAGDWKNKCYRCGERGHIERNCKNSPSPKKARQGGSYSRSPVKSRSPRRRRSPSRSRSYSRGRSYSRSRSPVRREKSVEDRSRSPKAMERSVSPKGRDQSLSPDRKVIDASPKRGSDYDGSPKENGNGRNSASPIVGGGESPVGLNGQDRSPIDDEAELSRPSPKGSESP
B10: RSZ21 (protein, UniProt O81127 1-187)
chain: MTRVYVGNLDPRVTERELEDEFKAFGVLRNVWVARRPPGYAFLEFDDERDALDAISALDRKNGWRVELSHKDKGGRGGGGGRRGGIEDSKCYECGELGHFARECRRGRGSVRRRSPSPRRRRSPDYGYARRSISPRGRRSPPRRRSVTPPRRGRSYSRSPPYRGSRRDSPRRRDSPYGRRSPYANGV
B11: MOS14 (MODIFIER OF SNC1-1, 14) (protein, UniProt Q8GUL2 1-958)
chain: MEHQNAVKEALNALYHHPDDTVRVHADRWLQNFQGTLDAWQVADNLLHDSSSNLETLIFCSQTLRSKVQRDFEELPPGAFQKLRQSLTTLLKKFHKGPPKVRTQISIAVAALAVHVPAADWGDGGIISWLRDEMHMHPEYVPGFLELLTVLPEETFNYKIAARPDRRRQFEKELTSQMEAALSILSACLKISELKEQVLEAFASWLRLRHGIPGTVLACHPLVHAALSSLNCDPLSEASVNVISELIHHTASPSSGGISAQTPLIQVIVPQILSLQAHLRDSSKDEEDVKAIGRLFADVGDSYVELIATGSDEPMVIVHALLEVTAHPEFDIASMTFNFWHSLQLMLTKRESYSSLGSEASIEVERNRRLHIFQPAYQSLVSLVGFRVQYPEDYQGLSYEDLKEFKQTRYAVADVLIDAALILGGDTTLKILYMKLLEANAQTGNNFQDWRPAEAILFCIWAISNYVSVVEAEVMPQVMALLQNLPQQAQLLQTACLLVGAYSKWLNAAPASVSILPSIIRILMSGMGTSEDCAAAAALAFRHTCDDCRKNLCGYFEDLFNIYCMAINGGGGYKVSAEDSLNLVEALGMVVTELPLDQAKGALEKLCFSAASPLEEAAKEDLEKKHARELTVHIDRFAFLFRYVNHPEAVAAEINKHWAIFRVIFDARPWDMRTMESLCRACKYAVRTSGRYIIDTIGEMLEKIQFHYQQHHQPCFLYLSSEVIKIFGSDPSCAVYLKNLIETLFAHTTCLMTSIKEVTARPDIADDCFLLASRCLRYCPHLFIPSPIFPALVNCAMIGITVQHREACHSILTFLTDIFDLEKSVNEEQFVRIRDNIIIPRGATITRILIASLAGALPSSRLDTVTYSLLALTRTYRLQAVSWAKESVSLIPRTALTETESTKFLQALSDIAYGADVNSLIGQVEELSDVCRRNRTVQELVQAALKPLELNLVTAPVS

Each molecule was assayed against T1, serine/arginine-rich 45 (SR45), SR45.1 isoform (Arabidopsis thaliana) (assay: two-hybrid).

Row | binding | Molecule
1 | no binding | SRPK2 (Arabidopsis thaliana) (enzyme)
2 | binds | SRPK3a (Arabidopsis thaliana) (enzyme)
3 | no binding | SRPK1 (Arabidopsis thaliana) (enzyme)
4 | binds | SRPK3b/SRPK5 (Arabidopsis thaliana) (enzyme)

Each molecule was assayed against SR45mutRS1 (Arabidopsis thaliana) (UniProt Q9SEE9) (assay: two-hybrid).

Row | binding | Molecule
5 | binds | B1
6 | no binding | B2
7 | binds weakly | B3
8 | binds | B4
9 | no binding | B5
10 | no binding | B6
11 | binds | B7
12 | binds | B8
13 | no binding | B9
14 | no binding | B10

What follows are molecules tested against SR45mutRS1+RRM (Arabidopsis thaliana) (UniProt Q9SEE9) (assay: two-hybrid).

Row | binding | Molecule
15 | no binding | B2
16 | binds weakly | B3
17 | no binding | B5
18 | no binding | B6
19 | no binding | B9
20 | no binding | B10

The molecules below were run against SR45mutRS1+RS2 (Arabidopsis thaliana) (UniProt Q9SEE9) (assay: two-hybrid).

Row | binding | Molecule
21 | binds | B1
22 | no binding | B2
23 | no binding | B4
24 | no binding | B5
25 | no binding | B6
26 | no binding | B7
27 | no binding | B8
28 | no binding | B9
29 | no binding | B10

These molecules were tested against SR45mutRS2 (Arabidopsis thaliana) (UniProt Q9SEE9) (assay: two-hybrid).

Row | binding | Molecule
30 | binds | B1
31 | binds | B4
32 | binds | B7
33 | no binding | B11
34 | binds | B8

Reference: publication doi:10.1101/2023.08.07.552250
